Sequences of proteins named here, by UniProt entry; tags and fusion partners are left off. A change or cut given only in a name is not applied to a line headed by its entry.
UniProt Q01638: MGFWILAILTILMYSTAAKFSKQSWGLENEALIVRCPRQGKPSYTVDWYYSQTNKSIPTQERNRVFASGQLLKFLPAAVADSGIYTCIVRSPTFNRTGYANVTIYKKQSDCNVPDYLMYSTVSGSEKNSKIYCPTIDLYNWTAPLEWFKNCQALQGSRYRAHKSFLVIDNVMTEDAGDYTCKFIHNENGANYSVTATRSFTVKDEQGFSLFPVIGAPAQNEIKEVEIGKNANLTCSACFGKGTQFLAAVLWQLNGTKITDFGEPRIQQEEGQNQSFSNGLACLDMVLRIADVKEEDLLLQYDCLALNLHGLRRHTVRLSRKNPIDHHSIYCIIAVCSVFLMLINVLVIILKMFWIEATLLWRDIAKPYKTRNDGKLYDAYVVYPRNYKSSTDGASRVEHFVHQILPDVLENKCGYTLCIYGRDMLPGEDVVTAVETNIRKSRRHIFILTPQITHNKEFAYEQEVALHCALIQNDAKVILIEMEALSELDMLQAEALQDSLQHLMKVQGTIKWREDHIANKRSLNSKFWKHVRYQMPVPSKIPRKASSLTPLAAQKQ

Several values for one entry are separate records, joined by “and”; a condition that tells them apart may be missing. Identical values can stand only once. The whole screen tested about 78,000 compounds, of which about 1,800 (2.3%) were called active. This list was built around the results that the source calls inconclusive (neither active nor inactive); the mix of calls is not that of the screen. No stated cut-off is given here; in the data, active means inhibition above about 30%; inconclusive means mostly about 10% to 28%; inactive means weaker than that.
The molecules below were run against Interleukin-1 receptor-like 1 (Homo sapiens) (UniProt Q01638) (assay: blocks human ST2 binding to IL-33, primary screen, biochemical, AlphaLISA (AID 1259354)). Conditions: AlphaLISA ST2-Fc/biotin-IL-33 interaction, 1 h; at 17 µM, active compounds read high.
With `CC(C)CN1C(=O)c2cccc3cccc(c23)C1=O` the inhibition was inconclusive: 15%. `O=C(O)CC1(CC(=O)N[C@H]2CO[C@H]3[C@@H]2OC[C@@H]3n2nnnc2Oc2cccc(N3CCOCC3)c2)CCCC1` was tested, and the inhibition was inconclusive: 13%. In the case of `CC(=O)c1cc(CN2CCC3(CCCN(Cc4ccc(F)c(F)c4)C3)C2)cs1` (centres undefined), the inhibition is reported as inconclusive: 12%. With `O=C(NC1CCCN(C2CCCCCC2)C1)c1ccc2c(c1)OCCO2` (centres undefined) the inhibition was “inactive”. `N#CCSc1nc2c(sc3ccccc32)c(=O)n1CCc1ccccc1` was tested, and the inhibition was “inactive”. `CC(=O)N1c2c(cc(Br)cc2S(=O)(=O)N(C)c2cc(C)ccc2C)CC1C` (centres undefined) was tested, and the inhibition was “inactive”. With `Fc1ccccc1Nc1nc(-c2cccs2)cs1` the inhibition was inconclusive: 16%. `O=c1[nH]c2ccc(S(=O)(=O)Nc3ccc(F)cc3Cl)cc2[nH]c1=O` was tested, and the inhibition was inconclusive: 10%. For `CCOc1ccc(C(=O)Nc2ccccc2I)cc1Cl`, the inhibition was inconclusive: 14%. `O=C(NCCN1CCCc2ccccc21)C1CCCN1c1nnc(N2CCCC2=O)s1` (centres undefined) was tested, and the inhibition was inconclusive: 10%. In the case of `COc1ccccc1NC(=O)/C(=C\c1cccs1)NC(=O)c1ccco1`, the inhibition is reported as inconclusive: 10%. For `CCOc1cc(/C=C2\SC(=O)N(C)C2=O)ccc1OCc1ccc(C(=O)O)cc1`, the inhibition was inconclusive: 16%. With `CN(C)c1ccc(NC(=O)Nc2ccc3nc(-c4ccccn4)c(-c4ccccn4)nc3c2)cc1` the inhibition was “inactive”. `COc1ccc(C(=O)NN2C(=O)C3C(C2=O)[C@@H]2C=C[C@H]3[C@H]3C[C@H]32)cc1` (some centres undefined) was tested, and the inhibition was “inactive”. In the case of `COC(=O)c1cc2c(s1)CN(C1CCCCC1C)C2` (centres undefined), the inhibition is reported as inconclusive: 14%. `Cc1ccc(S(=O)(=O)N2CCN(c3ccccc3)CC2)cc1` was tested, and the inhibition was “inactive”. `CC1=C(C(=O)OC(C)(C)C)C(c2cccc(F)c2)C(C#N)=C(N)O1` (centres undefined) was tested, and the inhibition was inconclusive: 12%. For `OC[C@H]1NC[C@H](O)[C@@H](O)[C@@H]1O`, the inhibition was inconclusive: 19%. In the case of `Cc1ccc(C)c2c(C)c(C(=O)N3CCOC(Cc4ccccc4)C3)[nH]c12` (centres undefined), the inhibition is reported as “inactive”. `CCCC#C/C=C1/C=CC(=O)O1` was tested, and the inhibition was inconclusive: 20%. `Cc1cccc(/C=C/C(=O)Nc2ncc(Cc3ccc(F)cc3)s2)c1` was tested, and the inhibition was inconclusive: 10%. For `COc1cc(/C=C2/C=C(c3ccccc3)OC2=O)cc(OC)c1OC`, the inhibition was active: 61%. With `Cc1cc(Nc2ccccc2)nc(Nc2ccc(NC(=O)C(C)(C)C)cc2)n1` the inhibition was inconclusive: 18%. With `O=C(CCN1CCCC1=O)NCc1ccc2[nH]c3c(c2c1)CCCC3` the inhibition was inconclusive: 12%. In the case of `O=C(Nc1nccs1)c1c(O)c2ccccc2[nH]c1=O`, the inhibition is reported as inconclusive: 12%. In the case of `CCOC(=O)[C@@H]1C[C@@H]1CN1CCn2nc(-c3nc4ccccc4n3C)cc2C1`, the inhibition is reported as inconclusive: 27%. `CN(CC1(c2ccccc2)CC1(C)C)C(=O)c1cn(CCc2ccccc2)nn1` (centres undefined) was tested, and the inhibition was inconclusive: 16%. `CSCCC(NC(=O)C1CCC(C)CC1)C(=O)Nc1cccnc1` (centres undefined) was tested, and the inhibition was “inactive”. With `O=c1[nH]c(-c2ccccc2O)nc2ccccc12` the inhibition was inconclusive: 21% and inconclusive: 15%. With `Cc1nn(C)cc1-c1ccnc(NCCCN2CCCC2)n1` the inhibition was “inactive”. `Cc1ccc(OCCn2cnc3ccccc3c2=O)c(Br)c1` was tested, and the inhibition was “inactive”. For `COc1cc(C2CC(=O)N3CN(c4ccc(C)cc4)CSC3=C2C#N)ccc1O` (centres undefined), the inhibition was inconclusive: 13%. `O=C1CCCC2=C1C(c1ccco1)Nc1ccc(C(=O)c3ccccc3)cc1N2` (centres undefined) was tested, and the inhibition was inconclusive: 15%. In the case of `CN(CCCNC(=O)c1cccn1-c1nnc(N2CCCCC2)s1)C1CCCCC1`, the inhibition is reported as inconclusive: 10%. With `Cn1c(=O)c2c(nc(N3CCc4ccccc4C3)n2Cc2ccccc2)n(C)c1=O` the inhibition was inconclusive: 23%. `COC(=O)NC1CCC(NC(=O)OC)CC1` (centres undefined) was tested, and the inhibition was inconclusive: 14%. In the case of `CC(=O)N1CCN(CC[C@H]2CN(C(=O)c3ccnc(Cl)c3)CC[C@H]2CC(=O)O)CC1`, the inhibition is reported as inconclusive: 16%. For `COCCn1c(=O)[nH]c2cc(C(=O)NCC3CCCO3)ccc2c1=O` (centres undefined), the inhibition was inconclusive: 14%. For `COc1cc(OC)c(Cl)cc1N`, the inhibition was inconclusive: 25%. For `O=C(Nc1cccc(C(F)(F)F)c1)N[C@H]1CO[C@H]2[C@@H]1OC[C@@H]2Nc1nccc(C2CCCC2)n1`, the inhibition was inconclusive: 19%. With `O=C(CSC1CC(=O)N(c2ccccc2F)C1=O)Nc1cccc(Cl)c1` (centres undefined) the inhibition was “inactive”. In the case of `CCN(CC)CCOC(=O)c1cc(Cl)c(N)cc1OC`, the inhibition is reported as inconclusive: 12%. In the case of `CC(=O)NCCOc1nc(N(C)C)nc(N(C)C)n1`, the inhibition is reported as inconclusive: 13%. For `CC(N)=NS(=O)(=O)c1ccc(Cl)cc1`, the inhibition was “inactive”. `COc1ccc(C2CC(c3cccs3)=NN2C(=O)CS(=O)(=O)c2c[nH]c3ccccc23)cc1` (centres undefined) was tested, and the inhibition was inconclusive: 11%. For `CCOc1cc2c(cc1OCC)C(CN1C(=O)c3ccccc3C1=O)=NCC2`, the inhibition was inconclusive: 10%. In the case of `CC(C)c1ccc(N(C(=O)c2c(F)cccc2F)C2C=CS(=O)(=O)C2)cc1` (centres undefined), the inhibition is reported as “inactive”. In the case of `COc1ccccc1C(=O)C1CCCN(C(=O)c2csc(-c3cccs3)n2)C1` (centres undefined), the inhibition is reported as inconclusive: 22%. With `COc1ccc(CCNC(=O)N2C(=O)CCC2=O)cc1OC` the inhibition was “inactive”. In the case of `Cc1ccc(F)c(Cn2cc(C3CC=CCC3)nn2)c1F` (centres undefined), the inhibition is reported as inconclusive: 25%. With `CCC(=O)N1CCc2cc(Br)cc(S(=O)(=O)NCCCN(C)C)c21` the inhibition was “inactive”. `CCN(CC)C(=O)Cn1cnc2sc(C(=O)Nc3ccc(OC)c(OC)c3)c(C)c2c1=O` was tested, and the inhibition was “inactive”. In the case of `CC1CCCN(C(=O)c2cc(-c3ccccc3)nc3ccccc23)C1` (centres undefined), the inhibition is reported as “inactive”. With `CCN(C(=O)c1cccc(NC(=O)[C@@H]2CCC(=O)N2)c1)c1ccccc1` the inhibition was inconclusive: 23%. With `CC(=O)NCCn1cnc(-c2ccccc2)c1-c1cccn1-c1cccnc1` the inhibition was “inactive”. `O=C(NCc1ccccc1CN1CCCC1=O)[C@@H]1C[C@@H]2C=C[C@H]1C2` was tested, and the inhibition was “inactive”. For `O=C(NCCc1c[nH]c2ccc(OCc3ccccc3)cc12)C1CC1`, the inhibition was inconclusive: 16%. `Cc1csc(NC(=O)C2CCN(S(=O)(=O)c3cccc4cccnc34)CC2)n1` was tested, and the inhibition was “inactive”. For `CC(C)SCCCOc1ccccc1[N+](=O)[O-]`, the inhibition was inconclusive: 14%. In the case of `CC(Cc1cn(CCCN2CCCC2=O)nn1)c1ccccc1` (centres undefined), the inhibition is reported as “inactive”. `O=C(NCc1ccc(F)cc1Cl)C1CCN(S(=O)(=O)N2CCCC2)CC1` was tested, and the inhibition was “inactive”. With `CN(CCc1ccccn1)[C@H]1[C@@H]2OC[C@@H](O2)[C@@H](NC(=O)Nc2ccc(F)cc2)[C@@H]1O` the inhibition was inconclusive: 10%. `NC/C=C/C(=O)O` was tested, and the inhibition was inconclusive: 12%. `Cc1ccc(NC2(c3ccccc3)C(=O)c3ccccc3C2=O)cc1` was tested, and the inhibition was inconclusive: 14%. `CCc1nc(NC(C)=O)sc1-c1ccc([N+](=O)[O-])o1` was tested, and the inhibition was inconclusive: 10%. With `Cc1ccccc1C(=O)N1CCN(c2ccc([N+](=O)[O-])c(NC(C)c3ccccc3)c2)CC1` (centres undefined) the inhibition was active: 38%. In the case of `Cc1ccc(NC(=O)C2CCN(c3ccc(-c4cccs4)nn3)CC2)nc1`, the inhibition is reported as inconclusive: 15%. `Cc1nc(C)c(CC(=O)N2CCCC(c3[nH]ncc3-c3ccccc3)C2)c(=O)[nH]1` (centres undefined) was tested, and the inhibition was “inactive”. In the case of `CC(C)CC(NC(=O)c1cnnn1-c1ccccc1)c1ncnn1C` (centres undefined), the inhibition is reported as inconclusive: 11%. `CCOC(=O)CCC1=NS(=O)(=O)c2ccccc2N1` was tested, and the inhibition was “inactive”. For `COc1cccc(NC(=O)NCC2CCCN(C3CCOCC3)C2)c1` (centres undefined), the inhibition was inconclusive: 13%. In the case of `O=C(N1CCc2nnc(CCc3ccccc3)n2CC1)C1(C(F)(F)F)CC1`, the inhibition is reported as “inactive”. In the case of `COCc1nc(C)c(CNC(=O)c2oc3ccc(C)cc3c2C)s1`, the inhibition is reported as “inactive”. With `CC(=O)C1=C(O)C(=O)N(c2ccc(C(=O)O)cc2)C1c1ccc(Cl)cc1` (centres undefined) the inhibition was “inactive”. For `COc1cc(C2CC(=O)Nc3c2ccc2ccccc32)c(Br)c(OC)c1OC` (centres undefined), the inhibition was inconclusive: 20%. `COc1cccc(NC(=O)N[C@H]2[C@H](O)[C@@H](N3CCN(C)CC3)[C@@H]3OC[C@H]2O3)c1` was tested, and the inhibition was inconclusive: 15%. For `O=C(CCCn1cnnn1)NCc1cccnc1N1CCCCCCC1`, the inhibition was “inactive”. For `CCOc1ccc(CNC(=O)CN2C(=O)C(CC)=C(c3ccc(OC)cc3)S2(=O)=O)cc1OC`, the inhibition was “inactive”. In the case of `COc1cc(C(O)C2COC(c3ccc(O)c(OC)c3)C2CO)ccc1O` (centres undefined), the inhibition is reported as inconclusive: 15%. In the case of `CCC(CC)C(=O)Nc1ccc(Cl)cc1C`, the inhibition is reported as inconclusive: 15%. With `Nc1nonc1-c1noc(COc2cc(Cl)c(Cl)cc2Cl)n1` the inhibition was inconclusive: 11%. In the case of `COc1cc2ccc(=O)oc2cc1O[C@@H]1O[C@H](CO[C@@H]2O[C@@H](C)[C@H](O)[C@@H](O)[C@H]2O)[C@@H](O)[C@H](O)[C@H]1O[C@@H]1O[C@@H](C)[C@H](O)[C@@H](O)[C@H]1O`, the inhibition is reported as inconclusive: 17%. `CCOC(=O)C1C(=O)C=C(c2ccco2)CC1c1ccccc1` (centres undefined) was tested, and the inhibition was inconclusive: 18%. For `Cc1cc([N+](=O)[O-])nn1CCCC(=O)Nc1ccc(Cl)cc1`, the inhibition was “inactive”. `CCC(=O)Nc1ccc(OCC(=O)NCc2cnc(C)cn2)cc1` was tested, and the inhibition was “inactive”. In the case of `O=C(Nc1ccc(F)cc1)Nc1cccc(Cl)c1`, the inhibition is reported as “inactive”. With `CC(=O)c1ccc(NC(=O)CSc2nc(-c3ccc(C)cc3)ns2)cc1` the inhibition was inconclusive: 16%. In the case of `CN(C)c1ccc(NC(=O)CCC2CCCCC2)cc1`, the inhibition is reported as active: 67%. With `CC(C)(Oc1ccc2c(c1)CCC2)C(=O)NCC1(O)CCCNCC1` (centres undefined) the inhibition was inconclusive: 14%. For `Cc1nnc(-c2cccc(NC(=O)C3CCCCN3C(=O)c3ccnn3C)c2)s1` (centres undefined), the inhibition was inconclusive: 11%. `CC1=Nc2cc(C(=O)O)ccc2Sc2ccc(Cl)cc21` was tested, and the inhibition was “inactive”. For `Cc1ccc([N+](=O)[O-])cc1S(=O)(=O)N1CCCC(C)(C)C1`, the inhibition was inconclusive: 23%. With `CC1(C)CC(=O)C2=C(C1)N(c1ccccc1)C(=O)CC2c1ccccc1` (centres undefined) the inhibition was “inactive”. With `CCc1[nH]c2c(CNC(=O)c3ccc(=O)n(C)n3)cc(C)cc2c1C` the inhibition was inconclusive: 18%.

Source: PubChem BioAssay AID1259354 (Paczesny and Yang Labs, IUPUI and University of Michigan, 2018)
